Test results from publication PMC12561918.
No constants are given. Whether binding was seen depends on the method and setting. In cells and extracts the contact can be indirect. Some entries that bind do so weakly or less than the wild type.

Amino acid sequences for entries named in this document (tags omitted). Residues count along the entry.
UniProt I6Y4D2, residues 25-241: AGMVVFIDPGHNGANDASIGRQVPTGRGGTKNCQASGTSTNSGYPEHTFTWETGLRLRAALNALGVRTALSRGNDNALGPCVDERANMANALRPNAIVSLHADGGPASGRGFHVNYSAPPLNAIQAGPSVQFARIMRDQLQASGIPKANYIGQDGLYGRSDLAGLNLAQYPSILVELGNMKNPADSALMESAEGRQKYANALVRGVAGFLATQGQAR
UniProt Q12905: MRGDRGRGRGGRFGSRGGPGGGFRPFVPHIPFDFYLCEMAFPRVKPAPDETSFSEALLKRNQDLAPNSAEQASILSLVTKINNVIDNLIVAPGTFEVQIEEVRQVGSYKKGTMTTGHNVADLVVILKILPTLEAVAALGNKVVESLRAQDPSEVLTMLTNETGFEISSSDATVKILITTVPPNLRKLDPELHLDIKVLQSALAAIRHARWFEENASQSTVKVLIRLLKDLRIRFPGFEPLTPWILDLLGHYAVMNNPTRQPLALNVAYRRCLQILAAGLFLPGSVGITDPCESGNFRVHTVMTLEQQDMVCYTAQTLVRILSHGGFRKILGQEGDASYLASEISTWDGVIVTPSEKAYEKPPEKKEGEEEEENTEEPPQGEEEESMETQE

Target: Flag-Rv3717 (Mycobacterium tuberculosis Rv3717) expressed in HEK293T cells (Mycobacterium tuberculosis) (UniProt I6Y4D2)
Test: co-IP

“HA-ILF2 (interleukin enhancer-binding factor 2) (from UniProt Q12905 1-390)” was tested, and the binding was “binds”.
